Paper PMC11481411
Results are given in words; binding and its absence hold for the method and conditions named. In cells and extracts the contact can be indirect. Some results given as binding are weak or reduced against the parent protein; the word gives no strength.

Protein sequences, listed by entry. Tags and fused reporters are not part of them.
UniProt O95758: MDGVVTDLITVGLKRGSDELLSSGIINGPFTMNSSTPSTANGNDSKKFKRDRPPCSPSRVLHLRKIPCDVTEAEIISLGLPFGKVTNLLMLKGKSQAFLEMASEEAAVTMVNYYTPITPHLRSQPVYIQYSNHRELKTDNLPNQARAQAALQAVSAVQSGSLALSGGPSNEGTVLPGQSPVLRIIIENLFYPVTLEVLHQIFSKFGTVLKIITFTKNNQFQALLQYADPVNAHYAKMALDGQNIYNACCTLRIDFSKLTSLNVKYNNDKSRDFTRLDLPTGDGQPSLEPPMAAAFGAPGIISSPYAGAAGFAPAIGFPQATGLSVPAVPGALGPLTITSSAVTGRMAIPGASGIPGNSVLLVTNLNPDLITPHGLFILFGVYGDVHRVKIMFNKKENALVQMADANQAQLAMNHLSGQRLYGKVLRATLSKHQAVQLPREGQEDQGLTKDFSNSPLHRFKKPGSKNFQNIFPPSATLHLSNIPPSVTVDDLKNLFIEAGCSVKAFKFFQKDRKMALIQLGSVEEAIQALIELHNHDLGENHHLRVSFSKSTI
UniProt Q9UBU8: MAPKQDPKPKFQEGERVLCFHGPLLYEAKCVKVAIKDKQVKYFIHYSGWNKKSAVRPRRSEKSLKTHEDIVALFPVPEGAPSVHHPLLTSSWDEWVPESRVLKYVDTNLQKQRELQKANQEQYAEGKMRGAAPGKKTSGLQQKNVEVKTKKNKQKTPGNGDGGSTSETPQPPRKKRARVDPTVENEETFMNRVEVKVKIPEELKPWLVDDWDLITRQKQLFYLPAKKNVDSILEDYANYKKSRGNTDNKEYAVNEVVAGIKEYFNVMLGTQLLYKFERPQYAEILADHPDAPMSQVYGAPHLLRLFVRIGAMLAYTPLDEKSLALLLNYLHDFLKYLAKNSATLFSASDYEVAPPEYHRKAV

What was measured:
[1] = molecular target: T1, hnRNPL (human (endogenous in human cell lines; line not stated)) (UniProt P14866); test: co-IP; cell lysates on protein A/G magnetic beads carrying antibody, overnight at 4 °C, western blot; with or without RNase A
T1 sequence: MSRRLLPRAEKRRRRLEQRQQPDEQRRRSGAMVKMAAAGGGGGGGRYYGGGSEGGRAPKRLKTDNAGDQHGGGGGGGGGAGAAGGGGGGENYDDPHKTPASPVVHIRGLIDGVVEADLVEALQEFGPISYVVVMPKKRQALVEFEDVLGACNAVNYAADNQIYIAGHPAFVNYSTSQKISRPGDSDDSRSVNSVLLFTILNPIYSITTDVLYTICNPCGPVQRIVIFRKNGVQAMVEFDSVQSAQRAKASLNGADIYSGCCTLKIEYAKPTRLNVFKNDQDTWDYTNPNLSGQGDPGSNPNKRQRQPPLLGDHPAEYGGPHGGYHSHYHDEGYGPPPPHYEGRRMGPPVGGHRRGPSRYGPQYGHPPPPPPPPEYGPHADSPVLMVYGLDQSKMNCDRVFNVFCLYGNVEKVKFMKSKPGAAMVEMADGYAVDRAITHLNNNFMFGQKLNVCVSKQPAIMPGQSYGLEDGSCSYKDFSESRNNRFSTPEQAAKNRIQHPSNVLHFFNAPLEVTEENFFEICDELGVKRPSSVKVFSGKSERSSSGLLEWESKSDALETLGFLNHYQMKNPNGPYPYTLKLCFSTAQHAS

[2] = molecular target: polypyrimidine region-binding protein 3 (PTBP3) (human (endogenous in human cell lines; line not stated)) (UniProt O95758); test: co-IP; cell lysates on protein A/G magnetic beads carrying MRG15 or PTBP3 antibody, overnight at 4 °C, western blot; also after hnRNPL overexpression (Figure S5J)

Substance	binding [1]	binding [2]
polypyrimidine region-binding protein 3 (PTBP3) (from UniProt O95758 1-552)	binds	–
histone tail-binding protein MRG15 (from UniProt Q9UBU8 1-362)	–	binds
